According to article PMC11040358:
These are yes or no findings as the source states them, for the method shown. In cells and extracts the contact can be indirect. Some results given as binding are weak or reduced against the parent protein; the word gives no strength. Values belong to the molecule of their own block, whether it stands above or below them.

Amino acid sequences for entries named in this document (tags omitted). A change or cut given only in a name is not applied to a line headed by its entry.
UniProt P63092: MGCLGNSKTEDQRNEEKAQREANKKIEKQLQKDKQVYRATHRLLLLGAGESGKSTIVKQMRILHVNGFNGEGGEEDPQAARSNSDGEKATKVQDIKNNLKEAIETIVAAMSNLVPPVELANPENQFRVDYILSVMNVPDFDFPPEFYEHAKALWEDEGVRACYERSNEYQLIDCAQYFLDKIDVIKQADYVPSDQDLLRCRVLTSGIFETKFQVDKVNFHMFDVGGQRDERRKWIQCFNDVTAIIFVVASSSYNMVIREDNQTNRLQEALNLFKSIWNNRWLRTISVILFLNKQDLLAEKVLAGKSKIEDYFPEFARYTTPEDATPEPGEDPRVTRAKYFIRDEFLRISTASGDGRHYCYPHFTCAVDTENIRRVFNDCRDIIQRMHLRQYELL
UniProt P63094: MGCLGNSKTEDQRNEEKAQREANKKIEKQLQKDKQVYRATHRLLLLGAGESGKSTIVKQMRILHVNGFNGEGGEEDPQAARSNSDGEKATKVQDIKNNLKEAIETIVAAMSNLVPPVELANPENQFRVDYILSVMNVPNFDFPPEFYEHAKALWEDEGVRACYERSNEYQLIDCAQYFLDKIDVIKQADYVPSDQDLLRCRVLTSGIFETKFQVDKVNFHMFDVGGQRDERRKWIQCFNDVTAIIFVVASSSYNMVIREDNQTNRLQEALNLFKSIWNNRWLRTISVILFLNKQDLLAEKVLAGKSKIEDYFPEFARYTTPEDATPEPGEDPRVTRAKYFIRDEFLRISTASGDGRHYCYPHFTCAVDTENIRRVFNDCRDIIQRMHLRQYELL
UniProt P45974: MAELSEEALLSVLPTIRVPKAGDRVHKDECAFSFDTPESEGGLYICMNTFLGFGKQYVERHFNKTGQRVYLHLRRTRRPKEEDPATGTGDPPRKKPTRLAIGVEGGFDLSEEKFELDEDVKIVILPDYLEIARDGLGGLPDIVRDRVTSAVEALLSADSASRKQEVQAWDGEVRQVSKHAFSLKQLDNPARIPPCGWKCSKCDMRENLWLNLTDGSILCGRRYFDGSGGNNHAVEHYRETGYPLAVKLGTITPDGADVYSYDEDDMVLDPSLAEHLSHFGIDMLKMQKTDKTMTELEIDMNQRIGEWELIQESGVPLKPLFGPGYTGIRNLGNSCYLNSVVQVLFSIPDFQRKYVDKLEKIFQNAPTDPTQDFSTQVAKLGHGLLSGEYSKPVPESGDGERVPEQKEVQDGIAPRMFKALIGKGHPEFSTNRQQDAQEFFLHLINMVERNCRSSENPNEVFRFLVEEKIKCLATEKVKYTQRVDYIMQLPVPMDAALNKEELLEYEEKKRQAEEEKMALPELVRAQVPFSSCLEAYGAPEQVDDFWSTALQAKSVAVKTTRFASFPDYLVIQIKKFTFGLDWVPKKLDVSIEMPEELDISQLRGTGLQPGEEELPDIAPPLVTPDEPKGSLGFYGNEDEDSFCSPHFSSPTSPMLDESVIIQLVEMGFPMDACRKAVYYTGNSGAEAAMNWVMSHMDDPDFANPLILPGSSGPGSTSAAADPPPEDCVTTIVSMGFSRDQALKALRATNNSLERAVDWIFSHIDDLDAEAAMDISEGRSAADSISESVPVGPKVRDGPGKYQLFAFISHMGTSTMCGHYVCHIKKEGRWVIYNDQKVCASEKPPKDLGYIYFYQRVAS
UniProt P56399: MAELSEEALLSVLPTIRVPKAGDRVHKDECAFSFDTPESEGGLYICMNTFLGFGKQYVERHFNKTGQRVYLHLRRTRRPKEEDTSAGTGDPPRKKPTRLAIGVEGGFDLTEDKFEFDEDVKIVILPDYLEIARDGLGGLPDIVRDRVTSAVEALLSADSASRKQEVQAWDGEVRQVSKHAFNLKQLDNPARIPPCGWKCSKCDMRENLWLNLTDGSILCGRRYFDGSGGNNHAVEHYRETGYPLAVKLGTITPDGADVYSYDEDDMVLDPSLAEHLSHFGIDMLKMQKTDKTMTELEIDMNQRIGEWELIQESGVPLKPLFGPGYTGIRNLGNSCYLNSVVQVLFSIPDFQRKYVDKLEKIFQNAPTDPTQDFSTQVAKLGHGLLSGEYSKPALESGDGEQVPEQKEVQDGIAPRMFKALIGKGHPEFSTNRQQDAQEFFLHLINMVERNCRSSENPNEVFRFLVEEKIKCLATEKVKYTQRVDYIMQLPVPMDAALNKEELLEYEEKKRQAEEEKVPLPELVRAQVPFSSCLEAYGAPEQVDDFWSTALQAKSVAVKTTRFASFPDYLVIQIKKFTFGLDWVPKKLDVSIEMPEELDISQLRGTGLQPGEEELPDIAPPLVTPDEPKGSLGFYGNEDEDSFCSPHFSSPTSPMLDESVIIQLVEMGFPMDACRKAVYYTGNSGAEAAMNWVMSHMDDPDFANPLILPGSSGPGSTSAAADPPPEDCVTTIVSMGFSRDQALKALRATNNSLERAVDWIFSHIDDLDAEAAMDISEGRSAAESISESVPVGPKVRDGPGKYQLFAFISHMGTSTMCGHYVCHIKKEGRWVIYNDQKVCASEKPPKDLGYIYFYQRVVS

Legend:
[1] = target: T1, Tipe1 (co-IP of Figures S10A, S10E and S11I,J; construct not shown) (UniProt Q8WVP5); experiment: co-IP; in HEK293T cells (Figure S10A); tags and antibodies not shown
T1 sequence: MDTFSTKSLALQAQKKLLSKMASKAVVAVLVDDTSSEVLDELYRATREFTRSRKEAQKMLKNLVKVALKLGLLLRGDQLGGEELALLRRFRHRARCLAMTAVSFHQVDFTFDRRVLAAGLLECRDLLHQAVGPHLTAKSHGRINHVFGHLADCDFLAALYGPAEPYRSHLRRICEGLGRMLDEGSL

[2] = target: T2, TNF‐α‐induced protein 8‐like 1 (Tipe1), endogenous in MIN6 cells (mouse (endogenous in MIN6)) (UniProt Q8K288); experiment: co-IP; endogenous proteins in MIN6 cell lysates; anti-Tipe1, anti-Gαs or anti-USP5 overnight at 4 °C, protein A/G magnetic beads 4 h, washed with PBST, Western blot; also after Tipe1 siRNA (Figure 5I)
T2 sequence: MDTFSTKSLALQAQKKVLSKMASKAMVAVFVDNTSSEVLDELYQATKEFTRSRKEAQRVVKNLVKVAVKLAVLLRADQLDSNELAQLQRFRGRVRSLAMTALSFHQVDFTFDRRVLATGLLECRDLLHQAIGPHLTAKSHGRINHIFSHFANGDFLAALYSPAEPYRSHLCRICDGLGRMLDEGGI

[3] = target: Gnas‐Flag (Flag‐tagged Gαs) (human) (UniProt P63092); experiment: co-IP; HEK293 cells overexpressing Tipe1-HA (rising doses), Gnas-Flag and USP5-Myc; IP with anti-Flag, probed with anti-Flag and anti-Myc
[4] = target: Gαs, the α subunit of the G‐stimulating protein, endogenous in MIN6 cells (mouse (endogenous in MIN6)) (UniProt P63094); experiment: co-IP; endogenous proteins in MIN6 cell lysates; anti-Tipe1, anti-Gαs or anti-USP5 overnight at 4 °C, protein A/G magnetic beads 4 h, washed with PBST, Western blot; also after Tipe1 siRNA (Figure 5I)
[5] = target: T2, TNF‐α‐induced protein 8‐like 1 (Tipe1), endogenous in MIN6 cells (mouse (endogenous in MIN6)); experiment: co-IP; Figure S8A; cells and antibodies not shown

- binding [1]: binds
Molecule: Gαs (co-IP in HEK293T cells, Figure S10A; construct not shown) (from UniProt P63092 1-394)

- binding [2]: binds
Molecule: Gαs, the α subunit of the G‐stimulating protein, endogenous in MIN6 cells (from UniProt P63094 1-394)

- binding [3]: binds
Molecule: USP5‐Myc (from UniProt P45974 1-858) (enzyme)

- binding [2]: binds
- binding [4]: binds
Molecule: deubiquitinase USP5, endogenous in MIN6 cells (from UniProt P56399 1-858) (enzyme)

- binding [5]: binds
B1: GΑSP1 (encoded by Gprasp1) (protein, UniProt Q5U4C1 1-1347)
chain: MTRAEVEPGAQAKAENKPGDENANAAEVEPEAPLVVRPKVRTQIMTGARPKVKPKGTPGARPKGETSTPGGAYAKCKPKAIPIARSKHDAQVWAPNKFRGESMSKMGKQCQISAADPPLLSNDSGMVAQAKCLPVDRELANMDTESIPKKANSPAGFQPSYGSEEGTNMGSWYRARPVPKGEAYENSDFKWADKPSGSPSFWNRDEASTRFRPRKSMKANNRFRHMAKQEANTMPRHKNKQEFYNISSSDSEDESGKTPWFWPKDKTKVWSKPKEEPNSRSWFRSKKEVRVESTSGSECENPTKSLFWSGEEAKSRSKPRARKGVNMRARQQAKREACSDAMSGAIDTNKKESWFLPEEKANVFSKSKTKKEPRTRAVPKEEVKTKARASTKQEARPEEEVLVGAWFWDTQESTMADRISIKTTFVEEEPIVGDWFWSEEEASVDSETCHTSRPRAKEEQVSSFCLGSGKKSSMESGPKATSKSMPVAKEDEVVIGSWFWADDEEINLQADDESIFGSWFWGTGENSLRSVGVNCEKMPKAGEKEVTDSWFWAGDVNTEAEVEEQARSASTKATIFVPWFWSEKQPNMDLGSEPCSDIMAGAEEEPIIGPWFWAKVDNSVEAEVNSKSSLEDEEEPIRSPWFGAREQTDMKYAAGIRYKPMAEAEDANKKSCVWAKEPCLYPTNRECLKSTLGEKEDTVDPWLWSNNYPRTKTITGSWLWAAEEGNIDDETGEKIKLPTLEDNAFNSWFWKENEESIVEAPKREEFRPEAEEEDIIGSWFWAGDEDRFEPAAKINEENKIASEDEDTVGSWFWGNEEASLEAVRRGTFESAPGIKEEKVTGSWFWTDKAKVGAGSQTVETGSETEEEAIFESLIWAAKKDSIQAGVKRVSKPKDDGNIAVGSWLWSSDKATKEAKTLIVSEASPENGKESVVKFGSRAKDEVINKTGSGDNCKHSTEAETIVGAWFWEGDEASFESNPVPVCKAVCEPESSAEHEPDPSRRPQSWDEVTVQFKAGPWGKAGFPPMNPFRFPKEAASLFAEMFGGKPKLVEVGPEREPEPQFPFQYDPSYRSVREIREHLKARESAQPENWSCNCIQCELRIGSEEFEELLLLMDRNRDPFIHEISKIAMGMRGASQFTRDFIRNSGVVSLIEALLNYPSSRVRTRFLENMVRMAPPYPDLNMIETYVCQICEDTFDYDLDSPDQLSGLTMITHLTATSDYHKVVVNYLAGFFYLLNSGNTKTRFHVLKLLLNLSENLVMTKRLLVTDSVSEFMDLINREESDENIQIVLAIFETISKHIQKEALFSDDDDDDEEEDAVNLEPFISAFREAEKIAKELKRKPGNQKAP
